Measurements reported in PubChem BioAssay AID1259354 (Paczesny and Yang Labs, IUPUI and University of Michigan, 2018).
In all, about 78,000 compounds went through this assay and about 1,800 (2.3%) were called active. Inconclusive means that the source gave no clear call. Such entries were picked first, then a sample of the others. Cut-off read from the data, not from the text of the source: active = inhibition above about 30%; inconclusive = mostly about 10% to 28%; inactive = weaker than that.

Protein sequences, listed by entry. Tags and fused reporters are not part of them. Lines headed by an entry give the natural chain unless they say otherwise; changes in a name come on top.
UniProt Q01638: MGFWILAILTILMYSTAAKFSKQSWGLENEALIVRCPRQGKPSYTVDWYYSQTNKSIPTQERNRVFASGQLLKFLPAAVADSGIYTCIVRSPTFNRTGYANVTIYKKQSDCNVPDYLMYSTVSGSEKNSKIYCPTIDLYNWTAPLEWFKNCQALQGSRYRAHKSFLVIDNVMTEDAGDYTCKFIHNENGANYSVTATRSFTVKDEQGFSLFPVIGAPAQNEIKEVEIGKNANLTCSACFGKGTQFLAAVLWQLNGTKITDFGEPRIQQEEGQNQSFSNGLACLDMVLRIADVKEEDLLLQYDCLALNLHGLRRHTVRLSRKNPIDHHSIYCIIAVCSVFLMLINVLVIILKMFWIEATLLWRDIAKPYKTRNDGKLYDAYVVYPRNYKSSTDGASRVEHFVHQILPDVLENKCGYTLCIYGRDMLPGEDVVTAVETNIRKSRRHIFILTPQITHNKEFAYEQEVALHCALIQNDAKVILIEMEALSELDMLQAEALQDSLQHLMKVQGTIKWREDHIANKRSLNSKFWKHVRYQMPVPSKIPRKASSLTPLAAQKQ

These compounds were tested against Interleukin-1 receptor-like 1 (Homo sapiens) (UniProt Q01638) (assay: blocks human ST2 binding to IL-33, primary screen, biochemical, AlphaLISA (AID 1259354)). Conditions: AlphaLISA ST2-Fc/biotin-IL-33 interaction, 1 h; at 17 µM, stronger effect = higher value.

Structure (SMILES)	inhibition
C=CCc1cc(Cl)ccc1OCCNCCN	inactive
COCC(C)NC(=O)C1CCN(c2cc(C)c3ccc(Cl)cc3n2)CC1 (centres undefined)	inconclusive: 18%
COc1ccc(-c2c(C)oc3cc(O)cc(O)c3c2=O)cc1	inconclusive: 26%
COC(=O)c1ccn(CC(=O)Nc2cc(C)nn2C2CCCCC2)n1	inactive
O=C(c1cccc(Cn2cccn2)c1)N1CCOC(C(F)(F)F)C1 (centres undefined)	inactive
NC(=O)N1c2ccccc2C=Cc2ccccc21	inconclusive: 12%
COc1ccc(C(=O)Nc2ccc(Br)cc2F)cc1[N+](=O)[O-]	inconclusive: 10%
O=C1C2CCCN2C(c2ccc(F)c(F)c2)N1c1nccs1 (centres undefined)	inactive
Cc1cc(N(C)C)nc(N2CCN(S(=O)(=O)c3ccccc3F)CC2)n1	inconclusive: 13%
c1ccc(Oc2cccc(CN3CCSCC3)c2)cc1	inconclusive: 25%
CC(=O)c1ccc(N2CCOCC2)c(F)c1	inactive
CCOC(=O)c1nn(CC2CC2)c2c1CN(C(=O)C(C)Oc1ccc(Cl)cc1C)CC2 (centres undefined)	inactive
CCc1ccccc1N(C(=O)c1cccs1)C1C=CS(=O)(=O)C1 (centres undefined)	inconclusive: 11%
CCc1nnc(NC(=O)COc2ccc(C)cc2C)s1	inactive
Cc1nn(C)c(C)c1-c1ccnc(NCc2ccc3c(c2)OCO3)n1	inconclusive: 12%
O=C1C2C3CCC(C3)C2C(=O)N1Cc1ccc(Cl)cc1 (centres undefined)	inconclusive: 12%
c1cn2c(NC3CCCC3)c(-c3ccsc3)nc2cn1	inconclusive: 11%
CC(=O)Nc1nonc1-c1nc2ccccc2n1Cc1ccc(Cl)cc1F	inconclusive: 15%
CSc1nc2c(c(=O)n1-c1ccc(C)cc1)SCC2	inconclusive: 17%
CCCn1cc(C(=O)N2CCCC3(CN(C)C(=O)O3)C2)c(C)n1 (centres undefined)	inconclusive: 10%
O=C(Nc1cccc(Cl)c1)c1noc2c1CCCC2	inconclusive: 10%
O=C1c2ccc([N+](=O)[O-])cc2C(=O)N1CCc1nc2ccccc2c(=O)o1	inconclusive: 18%
Cc1cc(C)n(-c2nc3ccccc3[nH]c2=O)n1	active: 46%
Cc1cccc2nc(-c3ccccn3)c(Nc3ccccc3)n12	inconclusive: 11%
O=C1NC(=O)N(Cc2ccc(F)cc2)C(=O)/C1=C/c1cc2c(cc1[N+](=O)[O-])OCO2	inconclusive: 13%

Structure (SMILES)	inhibition
CCN(CC)CC(O)Cn1c(C)c(C)c2ccccc21 (centres undefined)	inconclusive: 13%
CN(C)C(=O)c1ccc2c(c1)N(CC(=O)N1CCOCC1)C(=O)C1CCCCN21 (centres undefined)	inactive
Cc1oc(-c2cccc(NC(=O)c3ccccn3)c2)nc1CNC(=O)Cc1ccc(F)cc1	inconclusive: 13%
Cc1cccn2c(=O)c3cc(C(=O)NCc4ccccn4)n(C)c3nc12	inconclusive: 11%
Cc1nonc1N1CCN(C(=O)CC2(c3ccccc3)CC(=O)N(Cc3cccs3)C2=O)CC1 (centres undefined)	inconclusive: 19%
COc1ccccc1/C=C(\NC(=O)c1ccc(OC)c(OC)c1)C(=O)Nc1ccc(F)cc1	inconclusive: 13%
O=C(N[C@H]1CCN2C(=O)c3cc(-c4ccccc4)ccc3NC(=O)[C@H]12)C1CCCC1	inconclusive: 16%
Cc1nccn1-c1ccc(CNC(=O)[C@@H]2CCCCN2)cc1	inactive
O=C1CC(c2ccccc2)CCc2sccc2N1 (centres undefined)	inconclusive: 16%
CC(C)c1cc(C2CCN(C(=O)c3ccc4c(c3)CCO4)CC2)[nH]n1	inconclusive: 10%
COc1ccccc1/C=C/C1=NC(=C\c2ccccc2F)/C(=O)O1	inconclusive: 11%
c1ccc(CN2CCN(Cc3ccccc3)C2c2ccc[nH]2)cc1	inconclusive: 12%
Cn1c(=O)c(Cc2ccccc2F)nc2ccccc21	inactive
COc1ccc2c(C)nc(N=C(N)N)nc2c1	inconclusive: 12%
Cc1cnccc1CN(C)C(=O)[C@H](N)CC(C)C	inconclusive: 14%
O=C(c1cccc(F)c1)N1CCN(C2CCN(Cc3ccccc3)CC2)CC1	inactive
COc1ccc(NC(=O)CCC2CCCN(CC3=Cc4cccc(OC)c4OC3)C2)c(C)c1 (centres undefined)	inactive
CN1[C@@H](CCC(=O)NCc2ccc(F)cc2)CNC(=O)[C@@H]2[C@H]1CCN2C1CCCCC1	inactive
COc1cccc(NC(=O)CSc2nc3c(cc2C#N)C(=O)CC(C)(C)C3)c1	inconclusive: 18%
O=C(O)c1nn(CCO)c2c1CN(C(=O)C1(c3ccccc3)CCCC1)CC2	inactive
COc1cccc(C(Nc2cc(C)ccn2)c2ccc3cccnc3c2O)c1 (centres undefined)	inconclusive: 29%
Cc1ccc(C(=O)N2CCCC2)cc1[N+](=O)[O-]	inactive
CNC(=O)N(O)c1ccccc1	inconclusive: 11%
O=C(O)CC1C(=O)NCCN1CCCc1ccccc1 (centres undefined)	inconclusive: 16%
Cc1ccnc(N2CCC(Cc3nn(C)c(=O)n3-c3ccccc3)CC2)n1	inactive

An excerpt from above in order of number of heavy atoms, falling.
Structure (SMILES)	inhibition
COc1ccc(NC(=O)CCC2CCCN(CC3=Cc4cccc(OC)c4OC3)C2)c(C)c1 (centres undefined)	inactive
O=C(N[C@H]1CCN2C(=O)c3cc(-c4ccccc4)ccc3NC(=O)[C@H]12)C1CCCC1	inconclusive: 16%
COc1cccc(NC(=O)CSc2nc3c(cc2C#N)C(=O)CC(C)(C)C3)c1	inconclusive: 18%
Cc1cccn2c(=O)c3cc(C(=O)NCc4ccccn4)n(C)c3nc12	inconclusive: 11%
COc1ccccc1/C=C/C1=NC(=C\c2ccccc2F)/C(=O)O1	inconclusive: 11%

Later entries:

Structure (SMILES)	inhibition
COc1c(F)cccc1C(=O)N1CCC(O)(CN(C)C)C1 (centres undefined)	inactive
CCn1c(=O)n(-c2ccc(C)c(C)c2)c2nc(-c3ccc(C)cc3)nc(C(N)=O)c21	inactive
COc1ccc2oc(C(=O)c3ccccc3)c(N)c2c1	active: 35%
COc1ccc2cc3cc(C(=O)Nc4ccc5c(c4)OCCO5)oc3nc2c1	inconclusive: 21%
FC(F)(F)c1ccc2nnc(-c3ccc(Cl)cc3Cl)n2c1	inactive
COC(=O)CCCNC(=O)Cn1cnc2sc3c(c2c1=O)CCCC3	inactive
O=C(Cn1c(=O)n(-c2ccc(F)cc2)c(=O)c2sccc21)N1CCCCCC1	inconclusive: 15%
COc1ccc(CNC2CCCC2)cc1-c1ccc(O)cc1	inconclusive: 14%
CCOC(=O)C1CCN(C(=O)c2cn(C)c(=O)c3cc(OC)c(OC)cc23)CC1	inconclusive: 10%
CCS(=O)(=O)c1cc([N+](=O)[O-])c(Sc2ccccc2N)s1	inconclusive: 23%
COc1cc(CN(C)CCc2ccccn2)cc(I)c1O	inactive
CC1CC(C)CN(CC(=O)N2CCCc3c2c(=O)oc2ccc(OCc4ccccc4)cc32)C1 (centres undefined)	inconclusive: 22%
Cc1nc2sc(C(c3ccc(Cl)cc3)N3CCN(C)CC3)c(O)n2n1 (centres undefined)	inactive
COc1cc(NC(=O)c2c(-c3c(F)cccc3Cl)noc2C)c(OC)cc1Cl	inactive
Cc1nnc(N2C(=O)C(=O)C(=C(O)c3ccc(F)cc3)C2c2ccc(Cl)c(Cl)c2)s1 (centres undefined)	inactive
CCCOC(=O)C1C2C=CC3(CN(C(c4ccccc4)c4ccccc4)C(=O)C13)O2 (centres undefined)	inactive
CCC(C(=O)Nc1cc(S(=O)(=O)N(CC)CC)ccc1OC)c1ccccc1 (centres undefined)	inactive
CC(C)C(NC(=O)c1cc2ccccn2n1)c1nnc2n1CCNCC2 (centres undefined)	inactive
CN(c1ncccc1C(=O)N1C[C@H](N(C)C)C[C@H]1CO)C1CCCCC1	inactive
CC(C)(C)C(=O)Nc1c(C(=O)Nc2cccc(F)c2)oc2ccccc12	inactive
Cc1ccc(-c2ccccc2-c2ccccc2)nn1	inconclusive: 17%
CN(C)C(=NS(=O)(=O)c1ccc(Br)cc1)c1ccccc1	inactive
Cc1cc(C(F)(F)F)nc(CCNC(=O)c2cnn3c2CCCC3)n1	inconclusive: 22%
Cc1ccc(-c2ccc(F)cc2O)c2cccnc12	inconclusive: 13%
CCN(CC)Cc1cccc2c1COC2	inconclusive: 21%

Two consecutive compounds already listed:
Structure (SMILES)	inhibition
Cc1nccn1-c1ccc(CNC(=O)[C@@H]2CCCCN2)cc1	inactive
O=C1CC(c2ccccc2)CCc2sccc2N1 (centres undefined)	inconclusive: 16%

(further entries)

Structure (SMILES)	inhibition
Cc1nn(-c2ccccn2)c2c1C(=O)/C(=C\Nc1ccc([N+](=O)[O-])cc1)CC2	inconclusive: 27%
CCCCN(CC)C(=O)C1c2ccccc2C(=O)N2CCc3cc(OCC)c(OCC)cc3C12 (centres undefined)	inactive
CNC(=O)[C@@H]1C[C@@H](N)CN1C(=O)c1ccc2scnc2c1	inactive
Cc1cc(C)c(S(N)(=O)=O)cc1S(N)(=O)=O	inconclusive: 24%
Cc1[nH]cnc1-c1n[nH]c(=O)n1CCc1ccccc1	inconclusive: 16%
Cc1cccc(CN(Cc2ccccc2)C(=O)c2nnc(C)o2)n1	inconclusive: 10%
COC(=O)OC1=C(c2ccccc2)C(=O)c2ccccc21	inconclusive: 12%
COc1ccc(NC(=O)CCS(=O)(=O)c2cccc3nsnc23)c(OC)c1	inconclusive: 22%
CCc1ccc(C2CC(c3ccc(Br)cc3)Nc3nc(N)nn32)cc1 (centres undefined)	inconclusive: 13%
FC(F)(F)c1ccc2nnc(-c3ccc(Br)cc3)n2c1	inconclusive: 10%
CN1CCc2nc3sc(C(=O)c4ccc(F)cc4)c(N)c3cc2C1	inconclusive: 12%
COc1cc(OC)cc(C(=O)N2CCN=C2SCc2ccccc2C)c1	inconclusive: 23%
COc1ccc(C(=O)CSc2nnc(C(O)c3ccccc3)n2-c2ccccc2)cc1 (centres undefined)	inactive
CCN(Cc1noc(CC(C)C)n1)Cc1cc2c(cc1Cl)OCO2	inconclusive: 17%
Cc1ccc(CNC(=O)C(C)Oc2ccccc2)cc1 (centres undefined)	inactive
CC(=O)NC[C@H]1O[C@@H](CO)[C@@H](O)[C@H]1N1CCN(c2ccc(F)cc2)CC1	inconclusive: 25%
COc1cc(-c2cccc3ccnn23)ccc1NC(C)=O	inactive
O=C(NCCn1cc(SCC(=O)N2CCOCC2)c2ccccc21)c1ccccc1F	inconclusive: 12%
O=c1/c(=C/c2ccncc2)sc2n1CN(c1cccc(F)c1)CN=2	inconclusive: 24%
Cc1cc(C)nc(SCCS(=O)(=O)c2ccc(C(C)(C)C)cc2)n1	inactive
O=C(CCCn1c(=O)c2sccc2n(Cc2cccc(Cl)c2)c1=O)NCc1ccco1	inconclusive: 14%
Cc1ccc(-c2[nH]nc3c2C(c2cccc(F)c2)C(C#N)=C(N)O3)cc1 (centres undefined)	inactive
Cc1ccc(C)c(NC(=O)C(=O)NCc2ccc3c(c2)OCO3)c1	inactive
O=C(CN1C(=O)C2(OCCCO2)c2ccccc21)NC1CCCCC1	inactive
